This passage reports binding results from PMC6387943.

These are yes or no findings as the source states them, for the method shown. A result given as binding can be weak or reduced; the word gives no strength. Where a sequence is shown, tags or fusion partners need not be part of it. For some assays here: In cells and extracts the contact can be indirect.

Assay [1] has as its target SAP30 FUNCTION-RELATED 1 (AFR1), GAL4 DNA-binding domain fusion (Arabidopsis thaliana). Description: two-hybrid; BD Matchmaker system; GAL4 BD-AFR (pGBKT7) and GAL4 AD-LNK (pGADT7) cotransformed into yeast AH109; interaction read by cell growth on selective medium (-LWHA).
In assay [2] the target is SAP30 FUNCTION-RELATED 2 (AFR2), GAL4 DNA-binding domain fusion (Arabidopsis thaliana). The assay is described as above.
Assay [3] deals with AFR1-nYFP (Arabidopsis thaliana). As to the kind of experiment: split reporter; BiFC: AFR-nYFP and LNK-cYFP cotransformed into Arabidopsis protoplasts; reconstituted YFP fluorescence by confocal microscopy; IDD14-RFP as nuclear marker.
Assay [4] concerns the target AFR2-nYFP (Arabidopsis thaliana). Described as above.

B1: NIGHT LIGHT-INDUCIBLE AND CLOCK-REGULATED 1 (LNK1), GAL4 activation domain fusion (protein, UniProt A8MQN2 1-616)
chain: MSDLYIHELGDYLSDEFHGNDDGIVPDSAYEDGGQFPILVSNRKKRRNDDMGSGTNHLKSNTFIKREANMLGKNPWPEKDSGGSSVSRDTGTGKDVQDMTLEDTNTSDHGFNGGHVDVVENFSTGDPMLCDTSAATNDGVYNYSLNSIPDAENDLSFFDNGDKEKNDLFYGWGDIGNFEDVDNMLRSCDSTFGLDSLNNEGDLGWFSSAQPNEETAGAMTDDLKPDKMLENQRTAMLQVEDFLNNSEPNHAVEDEYGYTIEDDSAQGKSSQNVFDTSLQKKDILMLDVEANLEKKQTDHLHHLDGKSDGFSENSFTLQHSGISREIMDTNQYYPPSAFQQRDVPYSHFNCEQPSVQVSACESKSGIKSENKPSPSSASNESYTSNHAQSIESLQGPTVDDRFRKVFETRANLLPGQDMPPSFAANTKKSSKTDSMVFPDAAPIQKIGLENDHRKAATELETSNMQGSSCVSSVVDDISLEATSFRQLQQVIEQLDVRTKLCIRDSLYRLAKSAEQRHHGGNRPEKGAGSHLVTGEADKYAGFMDIETDTNPIDRSIAHLLFHRPSDSSLSSDNNVLSYKSHPMIPQPNSSPSLRIEKQEETTELRPEAEVVTSDNN
For the molecule B1, the binding entry in assay [1] and in assay [2] was “binds” each time.

B2: LNK1-cYFP (protein, UniProt A8MQN2 1-616)
chain: MSDLYIHELGDYLSDEFHGNDDGIVPDSAYEDGGQFPILVSNRKKRRNDDMGSGTNHLKSNTFIKREANMLGKNPWPEKDSGGSSVSRDTGTGKDVQDMTLEDTNTSDHGFNGGHVDVVENFSTGDPMLCDTSAATNDGVYNYSLNSIPDAENDLSFFDNGDKEKNDLFYGWGDIGNFEDVDNMLRSCDSTFGLDSLNNEGDLGWFSSAQPNEETAGAMTDDLKPDKMLENQRTAMLQVEDFLNNSEPNHAVEDEYGYTIEDDSAQGKSSQNVFDTSLQKKDILMLDVEANLEKKQTDHLHHLDGKSDGFSENSFTLQHSGISREIMDTNQYYPPSAFQQRDVPYSHFNCEQPSVQVSACESKSGIKSENKPSPSSASNESYTSNHAQSIESLQGPTVDDRFRKVFETRANLLPGQDMPPSFAANTKKSSKTDSMVFPDAAPIQKIGLENDHRKAATELETSNMQGSSCVSSVVDDISLEATSFRQLQQVIEQLDVRTKLCIRDSLYRLAKSAEQRHHGGNRPEKGAGSHLVTGEADKYAGFMDIETDTNPIDRSIAHLLFHRPSDSSLSSDNNVLSYKSHPMIPQPNSSPSLRIEKQEETTELRPEAEVVTSDNN
For B2, the binding result in assay [3] and in assay [4] was “binds” in each case.

B3: NIGHT LIGHT-INDUCIBLE AND CLOCK-REGULATED 2 (LNK2), GAL4 activation domain fusion (protein, UniProt F4JCX9 1-663)
chain: MFDWEEEELTNMIWGDDAETGDHIVPFKVRSEQLNKKEQIEESKTAEQKITGTKIDLHDKNLGSSSSHNVDEGLPQPDFCMSSWPDTSLTNATKVDQDLSATELSKCLAEPVRYDSTRGGAFLLKQSCFTWVRSFQSNHFKSCVLTLFLPEKTSELGKGPDIFHSSDESKEQGDFDDYSWANIGSFDDLDRMFSDGFAAMMSLYLVMAVSAVVMSYGHLLKITEFEQQENQQFPLTGKANGLSSQSVPSVRVTLKADQYREHKGQPSVEDQPYQQNKMMKFSKMPGTSEARPFQELYGQRIPFSNSAGKCVNQLAPPQSSLMAVNLLSESEGSGTSHYSHMPNQYMANSAFGNLANPYSSVPVISAVQHPDVRNQLMHPSYNPATATSVNMATDASARPSTMTPQEKLEKLRRRQQMQAMLAIQRQQQQFSHQVPVADQSITQNCLQDIPLQLVDKTNLQGLTAMPSFDPSSSLEQDDSGKFAAAVDNSAEFAVLYRLQDVVAKLDMGTRTCIRDSLFRLAGSAAQRHYTSDTSHSNKTSQDDQEVIPREESRYRYAGMPDTEAVTNPTDRTVAHLLFHRPFDMLAAKRMEGPESPASSKMGTEEKGNFPKCSIRETHLTKQKAQKEEGPADSLALGNAPNSGSSSTVGERVVEASQGNKRKL
Turning to B3, the binding result in assay [1] and in assay [2] was “binds” each time.

B4: LNK2-cYFP (protein, UniProt F4JCX9 1-663)
chain: MFDWEEEELTNMIWGDDAETGDHIVPFKVRSEQLNKKEQIEESKTAEQKITGTKIDLHDKNLGSSSSHNVDEGLPQPDFCMSSWPDTSLTNATKVDQDLSATELSKCLAEPVRYDSTRGGAFLLKQSCFTWVRSFQSNHFKSCVLTLFLPEKTSELGKGPDIFHSSDESKEQGDFDDYSWANIGSFDDLDRMFSDGFAAMMSLYLVMAVSAVVMSYGHLLKITEFEQQENQQFPLTGKANGLSSQSVPSVRVTLKADQYREHKGQPSVEDQPYQQNKMMKFSKMPGTSEARPFQELYGQRIPFSNSAGKCVNQLAPPQSSLMAVNLLSESEGSGTSHYSHMPNQYMANSAFGNLANPYSSVPVISAVQHPDVRNQLMHPSYNPATATSVNMATDASARPSTMTPQEKLEKLRRRQQMQAMLAIQRQQQQFSHQVPVADQSITQNCLQDIPLQLVDKTNLQGLTAMPSFDPSSSLEQDDSGKFAAAVDNSAEFAVLYRLQDVVAKLDMGTRTCIRDSLFRLAGSAAQRHYTSDTSHSNKTSQDDQEVIPREESRYRYAGMPDTEAVTNPTDRTVAHLLFHRPFDMLAAKRMEGPESPASSKMGTEEKGNFPKCSIRETHLTKQKAQKEEGPADSLALGNAPNSGSSSTVGERVVEASQGNKRKL
As for B4, the binding result in assay [3] and in assay [4] was “binds” each time.
